# From PubChem BioAssay AID1671190 (National Center for Advancing Translational Sciences (NCATS), 2021)
# Chains of the proteins cited; added tags and fusions are not shown. Lines headed by an entry give the natural chain unless they say otherwise; changes in a name come on top.
# UniProt P18054: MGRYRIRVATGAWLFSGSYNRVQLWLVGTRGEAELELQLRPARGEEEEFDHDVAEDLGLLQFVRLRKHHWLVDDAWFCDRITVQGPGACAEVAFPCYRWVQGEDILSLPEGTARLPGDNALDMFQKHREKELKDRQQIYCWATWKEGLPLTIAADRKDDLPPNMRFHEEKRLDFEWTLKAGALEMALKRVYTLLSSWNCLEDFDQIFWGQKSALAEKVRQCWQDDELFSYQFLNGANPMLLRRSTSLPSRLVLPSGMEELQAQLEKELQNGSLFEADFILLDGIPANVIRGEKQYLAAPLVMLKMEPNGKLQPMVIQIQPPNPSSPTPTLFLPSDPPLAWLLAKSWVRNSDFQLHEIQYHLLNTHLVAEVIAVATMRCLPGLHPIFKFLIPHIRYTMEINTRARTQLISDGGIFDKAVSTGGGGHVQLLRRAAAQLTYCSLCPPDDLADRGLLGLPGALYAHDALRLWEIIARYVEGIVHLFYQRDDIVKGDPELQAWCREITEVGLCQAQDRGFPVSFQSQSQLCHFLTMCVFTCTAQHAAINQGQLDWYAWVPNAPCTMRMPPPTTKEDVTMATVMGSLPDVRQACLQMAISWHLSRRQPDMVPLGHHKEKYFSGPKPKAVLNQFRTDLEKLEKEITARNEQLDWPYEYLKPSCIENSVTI
# Out of some 580,000 compounds screened, about 6,100 (1.1%) were called active. The shares of active, inactive and inconclusive entries below differ from those in the screen. Calls come from the whole dose curve; as a rule, active = well fitted inhibition curve with a large enough effect; inconclusive = small, poorly fitted or top-dose-only effect, or another doubt; inactive = no such curve, though single readings can be large or run the other way. Potencies of inconclusive entries are doubtful fits and often do not repeat.
# Molecular target: Polyunsaturated fatty acid lipoxygenase ALOX12 (Homo sapiens) (UniProt P18054)
# Test: Primary qHTS assay for inhibitors of human arachidonate 12S-lipoxygenase (ALOX12): Round 2
# Conditions: purified 12hLO, xylenol orange hydroperoxide absorbance; activity change, negative = inhibition: at 108 µM (top of the series) unless noted
# Summary of the method: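 Purified human 12hLO (150 nM final) in 25 mM Hepes, 0.01% Triton X-100, pH 7.0 was preincubated 15 min at room temperature with compound. Then 40 uM arachidonic acid was added, 30 min. Hydroperoxide was read by Fe-XO absorbance ratio 573/405 nm.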
# % is set by controls: 0 for no effect and ±100 for the full control effect; potency is the fitted concentration of half-maximal effect.
Structure (SMILES),Potency,"activity change, negative = inhibition"
Cc1cc(F)ccc1S(=O)(=O)Nc1nc2ccccc2nc1Cl,"inconclusive: 12.6 µM [inhibitor, full curve, poor fit]",
COc1ccc(S(=O)(=O)N/N=C(/C)c2ccncc2)cc1,"inconclusive: 79.4 µM [inhibitor, partial curve, poor fit]",
O=C(/C=C/c1cccc(Cl)c1Cl)NC(C1CC1)C1CC1,,inactive: -2.33%
O=C(Nc1ccc2nc(N3CCN(c4ccccc4)CC3)cc(C(=O)O)c2c1)c1cccc(Cl)c1,"inconclusive: 20 µM [inhibitor, full curve, poor fit]",
CCC(=O)Nc1ccc2oc(-c3ccc(C)c(Cl)c3)nc2c1,"inconclusive: 22.4 µM [inhibitor, full curve, poor fit]",
Cc1onc(-c2cnn(C)c2NCc2ccc(C#N)cc2)c1C(=O)NCc1ccccc1,,inactive: 14.3% [at 176 µM]
COc1ccc(OC)c(/C(C)=N/Nc2ccc(C(=O)O)cc2)c1,,inactive: -19.6%
COc1ccc(C(CNC(=O)CCc2nc(-c3ccncc3)no2)N2CCCCC2)cc1 (stereo not drawn),"inconclusive: 5.62 µM [inhibitor, full curve, poor fit]",
CN(C)C(=O)c1cc(F)ccc1Sc1cc(Cl)ccc1Cl,"inconclusive: 35.5 µM [inhibitor, single point]",
CCOc1ccccc1CN1CCC2(CCN(C(=O)c3ccc(OC)cc3)CC2)Oc2ccccc21,"inconclusive: 17.8 µM [inhibitor, partial curve]",
COc1cccc(NC(=O)Cn2c(C)ccc(NC(=O)Nc3ccc(C)cc3)c2=O)c1,"inconclusive: 56.2 µM [inhibitor, partial curve, poor fit]",
Cc1ccc(CN2CCN(/N=C/C(Br)=C\c3ccccc3)CC2)cc1,"inconclusive: 112 µM [inhibitor, single point]",
COc1c(CNC2CCN(Cc3ccccc3)C2)c(C)nn1C (stereo not drawn),,inactive: -3.24%
CC(=O)c1ccccc1NC(=O)COC(=O)C1=NN(c2ccccc2)C(=O)CC1,"inconclusive: 79.4 µM [inhibitor, partial curve, poor fit]",
COc1ccc2nc(SCC(O)c3cccc(Br)c3)[nH]c2c1 (stereo not drawn),"inconclusive: 7.94 µM [inhibitor, full curve, poor fit]",
O=C1NC[C@H](CCCCN2C[C@H](Cc3ccccc3)N(CCC3CCCCC3)C(=O)C2=O)N(CCc2ccccc2)C1=O,,inactive: 48.9%
CNC(=O)C1(N2CCC[C@H]2C(=O)N2CCOCC2)CCCCC1,,inactive: 7.39% [at 176 µM]
COc1ccccc1NS(=O)(=O)c1ccc2oc(SCCOc3ccccc3F)nc2c1,,inactive: -14%
Nc1ccc2c(c1)C/C(=C/c1ccco1)C2=O,"inconclusive: 39.8 µM [inhibitor, partial curve, poor fit]",
CCOc1ccc(-n2c(N)c(C(=O)NCc3ccco3)sc2=S)cc1,"inconclusive: 31.6 µM [inhibitor, single point]",
CC(C)c1ccc(C2NC(=S)NC3=C2C(=O)CC(C)(C)C3)cc1 (stereo not drawn),"inconclusive: 112 µM [inhibitor, single point]",
COc1ccc(F)c(C2C(C#N)=C(N)Oc3n[nH]c(C(C)(C)C)c32)c1 (stereo not drawn),"inconclusive: 100 µM [inhibitor, single point]",

# As entered above.
# Entry of `CCOc1ccc(-n2c(N)c(C(=O)NCc3ccco3)sc2=S)cc1` under Potency: inconclusive: 31.6 µM [inhibitor, single point]
# Entry of `Cc1onc(-c2cnn(C)c2NCc2ccc(C#N)cc2)c1C(=O)NCc1ccccc1` under activity change, negative = inhibition: inactive: 14.3% [at 176 µM]
# Entry of `COc1ccc(F)c(C2C(C#N)=C(N)Oc3n[nH]c(C(C)(C)C)c32)c1` (stereo not drawn) under Potency: inconclusive: 100 µM [inhibitor, single point]

# Later entries

Structure (SMILES),Potency,"activity change, negative = inhibition"
COC(=O)[C@@H]1[C@@H](CO)[C@@H]2Cn3c(ccc(Br)c3=O)[C@@H]2N1C(=O)CN(C)C,"inconclusive: 100 µM [inhibitor, single point]",
COc1ccc(-c2cn3c(n2)sc2cc(C(=O)NCCCc4ccccc4)ccc23)cc1,"inconclusive: 50.1 µM [inhibitor, partial curve]",
CCN(CC)C(=O)CSc1nc2cc3c(cc2c(=O)n1CCCC(=O)NCc1ccc2c(c1)OCO2)OCO3,"inconclusive: 112 µM [inhibitor, single point]",
Cc1ccc([C@H]2C[C@H](n3cc(C4CC4)nn3)[C@@H](O)CN2CC2CCCCC2)cc1,"inconclusive: 89.1 µM [inhibitor, single point]",
Cc1ccc(-c2cc(C(=O)N3CCN(Cc4ccncc4)CC3)c3ccccc3n2)o1,"inconclusive: 3.98 µM [inhibitor, full curve, poor fit]",
CSc1nc(-c2ccccc2)nn1S(=O)(=O)c1ccccc1,"inconclusive: 17.8 µM [inhibitor, partial curve, poor fit]",
Cc1noc(COc2ccc3c(C)cc(=O)oc3c2)n1,,inactive: -0.755%
CCOc1ccc(NC(=O)c2cn(C3CCCCC3)c(=O)c3c2c2ccccc2n3C)cc1,"inconclusive: 112 µM [inhibitor, partial curve, poor fit]",
COc1ccc(C(=O)CSc2nc(C)cc(=O)[nH]2)cc1,"inconclusive: 100 µM [inhibitor, single point]",
CCOP(=O)(OCC)c1nc(-c2cccc([N+](=O)[O-])c2)oc1N1CCCCC1,,inactive: 0%
O=C(NC1CCCC1)C(=O)c1ccc2c(c1)CCC2,,inactive: -75%
CCOCCN1CCN(C2c3ccccc3CSc3ccccc32)CC1 (stereo not drawn),"inconclusive: 4.47 µM [inhibitor, full curve, poor fit]",
Cn1sc(=O)c2cc(S(=O)(=O)NC3CC3)ccc21,"inconclusive: 12.6 µM [inhibitor, full curve, poor fit]",
O=C(Oc1ccccc1C(=S)N1CCOCC1)c1cccc([N+](=O)[O-])c1,,inactive: -24.1%
N#C/C(=C/c1ccc(OCC(F)(F)F)cc1)c1ccccn1,,inactive: 3.09%
CCn1cnc2c1c(=O)n(Cc1cccc([N+](=O)[O-])c1)c(=O)n2Cc1ccccc1,"inconclusive: 112 µM [inhibitor, partial curve, poor fit]",
CSc1ccc(-c2noc(C3CCCN(S(=O)(=O)c4cccs4)C3)n2)cc1 (stereo not drawn),,inactive: 5.31%
CCN(CC(=O)Nc1ccc(NC(C)=O)cc1)C(=O)/C=C/c1cn(-c2ccccc2)nc1-c1ccc(F)cc1,,inactive: -3.43%
COc1cc(C(=O)Oc2ccc(C(=S)N3CCOCC3)cc2)cc(OC)c1OC,,inactive: 0%
CC(=O)c1ccccc1NC(c1nnnn1-c1c(C)cccc1C)C1CC1 (stereo not drawn),,inactive: -0.729%
COC(=O)C1=C(C)N=C2SC=C(CC(=O)NCC3CCCO3)N2C1c1ccc(C)cc1C (stereo not drawn),,inactive: 36.9%
